Experimental data published in article PMC3189947.
These are yes or no findings as the source states them, for the method shown. Some results given as binding are weak or reduced against the parent protein; the word gives no strength. For part of these data: Where a sequence is shown, tags or fusion partners need not be part of it.

Protein sequences, listed by entry. Tags and fused reporters are not part of them. Residues count along the entry.
UniProt Q14155, residues 184-243: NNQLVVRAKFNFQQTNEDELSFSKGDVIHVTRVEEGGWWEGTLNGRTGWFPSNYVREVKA
UniProt Q92968, residues 272-336: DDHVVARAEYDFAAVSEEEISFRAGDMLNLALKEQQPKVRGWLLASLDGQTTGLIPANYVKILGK
UniProt P46108, residues 235-296: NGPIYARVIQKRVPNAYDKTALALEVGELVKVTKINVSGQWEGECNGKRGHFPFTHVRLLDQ
UniProt Q14247, residues 492-550: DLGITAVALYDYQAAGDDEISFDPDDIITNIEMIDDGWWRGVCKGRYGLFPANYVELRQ
UniProt Q92783, residues 210-269: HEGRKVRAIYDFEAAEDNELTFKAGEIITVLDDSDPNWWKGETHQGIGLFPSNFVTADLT
UniProt P78352, residues 313-393: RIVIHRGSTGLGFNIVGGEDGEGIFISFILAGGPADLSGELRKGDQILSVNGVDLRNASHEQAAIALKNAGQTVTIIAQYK
UniProt Q14160, residues 1100-1194: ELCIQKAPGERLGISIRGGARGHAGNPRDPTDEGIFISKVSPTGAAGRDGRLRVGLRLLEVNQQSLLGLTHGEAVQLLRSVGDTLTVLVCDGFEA
UniProt Q8TEW0, residues 590-677: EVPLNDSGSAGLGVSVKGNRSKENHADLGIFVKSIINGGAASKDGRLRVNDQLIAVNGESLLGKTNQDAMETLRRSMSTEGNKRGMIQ
UniProt Q14CM0, residues 78-155: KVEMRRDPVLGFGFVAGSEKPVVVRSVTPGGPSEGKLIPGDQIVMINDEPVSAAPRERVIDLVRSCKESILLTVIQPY
UniProt Q9GZV1: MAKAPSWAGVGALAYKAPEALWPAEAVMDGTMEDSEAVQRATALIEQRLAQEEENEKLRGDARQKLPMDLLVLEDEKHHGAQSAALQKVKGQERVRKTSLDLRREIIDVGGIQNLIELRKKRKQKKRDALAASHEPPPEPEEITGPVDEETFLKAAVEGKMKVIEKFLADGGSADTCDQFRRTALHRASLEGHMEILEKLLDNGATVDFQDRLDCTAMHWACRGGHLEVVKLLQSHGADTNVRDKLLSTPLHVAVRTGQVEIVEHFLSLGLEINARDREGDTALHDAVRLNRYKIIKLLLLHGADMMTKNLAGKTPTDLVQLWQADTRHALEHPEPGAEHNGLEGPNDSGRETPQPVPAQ

Legend:
[1] = target: Y124, PAK-interacting exchange factor beta (GST protein, SH3 array) (UniProt Q14155); experiment: peptide or protein array; SH3 Domain Array (Panomics/Affymetrix), 38 GST-SH3 domain proteins spotted in duplicate, probed with His-tagged Ankrd2 (15 ug/ml); both purified
[2] = target: PEXD, Peroxisomal membrane protein PEX13 (GST protein, SH3 array) (UniProt Q92968); experiment: as above
[3] = target: CRK-D2, sarcoma virus CT10 oncogene homolog, domain 2 (GST protein, SH3 array) (UniProt P46108); experiment: as above
[4] = target: Cortactin (GST protein, SH3 array) (UniProt Q14247); experiment: as above
[5] = target: T1, PLC γ, Phospholipase C gamma-1 (GST protein, SH3 array) (UniProt P19174); experiment: as above
T1 sequence: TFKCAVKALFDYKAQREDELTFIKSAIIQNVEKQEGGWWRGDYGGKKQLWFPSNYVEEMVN

[6] = target: Stam, Signal transducing adaptor molecule (GST protein, SH3 array) (UniProt Q92783); experiment: as above
[7] = target: T2, SNB1, Beta-1-syntrophin (GST-PDZ, PDZ array IV) (UniProt Q13884); experiment: peptide or protein array; PDZ arrays I-IV (Panomics/Affymetrix), GST-PDZ proteins spotted in duplicate on membranes, probed with His-tagged Ankrd2 (15 ug/ml), developed by ECL; both purified
T2 sequence: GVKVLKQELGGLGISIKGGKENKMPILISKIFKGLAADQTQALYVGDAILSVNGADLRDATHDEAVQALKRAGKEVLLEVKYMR

[8] = target: Dlg4-D3, Discs large homolog 4, domain 3 (GST-PDZ, PDZ array I) (UniProt P78352); experiment: as above
[9] = target: T3, SDB2-D2, domain 2 of syntenin-2 beta (GST-PDZ, PDZ array III) (UniProt Q9H190); experiment: as above
T3 sequence: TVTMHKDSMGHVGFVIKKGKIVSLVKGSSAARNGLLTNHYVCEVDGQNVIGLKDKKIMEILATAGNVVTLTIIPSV

[10] = target: SCRIB1-D4, Scribble domain 4 (GST-PDZ, PDZ array III) (UniProt Q14160); experiment: as above
[11] = target: T4, MUPP1-D6, domain 6 of the multiple PDZ domain protein (GST-PDZ, PDZ array IV) (UniProt O75970); experiment: as above
T4 sequence: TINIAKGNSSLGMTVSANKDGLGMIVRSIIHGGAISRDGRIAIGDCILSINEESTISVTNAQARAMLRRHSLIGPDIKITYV

[12] = target: T5, DLG5-D1, Discs large homolog 5, domain 1 (GST-PDZ, PDZ array IV) (UniProt Q8TDM6); experiment: as above
T5 sequence: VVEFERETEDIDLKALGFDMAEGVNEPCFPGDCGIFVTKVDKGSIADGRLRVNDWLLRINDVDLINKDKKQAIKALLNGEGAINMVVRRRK

[13] = target: T6, hCLIM1, PDZ and LIM domain protein 1 (GST-PDZ, PDZ array I) (UniProt O00151); experiment: as above
T6 sequence: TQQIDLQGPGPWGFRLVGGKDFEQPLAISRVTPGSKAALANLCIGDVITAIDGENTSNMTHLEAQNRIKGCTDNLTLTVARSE

[14] = target: T7, RIL, Reversion-induced LIM protein (GST-PDZ, PDZ array I) (UniProt P50479); experiment: as above
T7 sequence: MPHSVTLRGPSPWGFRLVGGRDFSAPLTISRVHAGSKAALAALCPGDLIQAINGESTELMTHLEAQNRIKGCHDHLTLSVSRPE

[15] = target: T8, RIM2, regulating synaptic membrane exocytosis 2 (GST-PDZ, PDZ array IV) (UniProt Q9UQ26); experiment: as above
T8 sequence: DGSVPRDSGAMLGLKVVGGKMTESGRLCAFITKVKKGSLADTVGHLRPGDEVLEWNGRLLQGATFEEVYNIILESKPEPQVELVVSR

[16] = target: PARD-3, partitioning-defective 3 homolog, domain 3 (GST-PDZ, PDZ array III) (UniProt Q8TEW0); experiment: as above
[17] = target: KIAA0316, FERM and PDZ domain containing 4 (GST-PDZ, PDZ array II) (UniProt Q14CM0); experiment: as above
[18] = target: T9, MUPP1-D13, domain 13 of the multiple PDZ domain protein (GST-PDZ, PDZ array IV) (UniProt O75970); experiment: as above
T9 sequence: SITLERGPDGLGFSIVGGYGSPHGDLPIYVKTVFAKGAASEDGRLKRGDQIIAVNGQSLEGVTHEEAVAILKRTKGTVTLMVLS

His-tagged Ankrd2 protein (from UniProt Q9GZV1 1-360)
binding [1]: binds | binding [2]: binds | binding [3]: binds | binding [4]: binds | binding [5]: binds | binding [6]: binds | binding [7]: binds | binding [8]: binds weakly | binding [9]: binds | binding [10]: binds weakly | binding [11]: binds | binding [12]: binds weakly | binding [13]: binds weakly | binding [14]: binds | binding [15]: binds | binding [16]: binds weakly | binding [17]: binds weakly | binding [18]: binds
